# From the supplement of paper PMC10849652
# Sequences of proteins named here, by UniProt entry; tags and fusion partners are left off. A change or cut given only in a name is not applied to a line headed by its entry.
# UniProt O15321, whole entry, looked up: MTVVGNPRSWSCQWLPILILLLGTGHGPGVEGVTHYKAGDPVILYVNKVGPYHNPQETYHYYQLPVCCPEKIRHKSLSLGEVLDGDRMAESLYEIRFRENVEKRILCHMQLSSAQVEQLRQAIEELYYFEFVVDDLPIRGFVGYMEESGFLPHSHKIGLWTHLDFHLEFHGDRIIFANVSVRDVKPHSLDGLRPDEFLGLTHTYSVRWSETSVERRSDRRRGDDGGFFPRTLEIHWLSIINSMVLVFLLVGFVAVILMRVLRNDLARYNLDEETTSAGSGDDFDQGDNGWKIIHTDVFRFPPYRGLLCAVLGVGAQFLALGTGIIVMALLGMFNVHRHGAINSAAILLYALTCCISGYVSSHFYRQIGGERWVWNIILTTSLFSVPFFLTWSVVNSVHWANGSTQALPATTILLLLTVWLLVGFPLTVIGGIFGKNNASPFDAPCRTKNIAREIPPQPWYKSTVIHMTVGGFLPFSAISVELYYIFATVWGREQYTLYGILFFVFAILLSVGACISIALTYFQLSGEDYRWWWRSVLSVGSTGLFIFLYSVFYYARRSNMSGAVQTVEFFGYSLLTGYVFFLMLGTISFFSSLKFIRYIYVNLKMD
# UniProt Q9BTX3: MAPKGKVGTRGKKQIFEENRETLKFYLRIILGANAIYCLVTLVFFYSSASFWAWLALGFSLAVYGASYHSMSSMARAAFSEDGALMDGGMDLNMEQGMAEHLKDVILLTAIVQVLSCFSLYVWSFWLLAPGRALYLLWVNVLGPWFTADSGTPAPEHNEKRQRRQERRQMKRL
# UniProt Q9H6X4: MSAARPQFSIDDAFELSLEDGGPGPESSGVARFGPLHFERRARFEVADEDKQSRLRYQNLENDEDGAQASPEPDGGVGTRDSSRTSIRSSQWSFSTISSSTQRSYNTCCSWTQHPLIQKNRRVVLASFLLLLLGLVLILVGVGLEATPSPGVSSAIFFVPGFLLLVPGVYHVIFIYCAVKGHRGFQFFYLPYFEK
# UniProt Q86WV6: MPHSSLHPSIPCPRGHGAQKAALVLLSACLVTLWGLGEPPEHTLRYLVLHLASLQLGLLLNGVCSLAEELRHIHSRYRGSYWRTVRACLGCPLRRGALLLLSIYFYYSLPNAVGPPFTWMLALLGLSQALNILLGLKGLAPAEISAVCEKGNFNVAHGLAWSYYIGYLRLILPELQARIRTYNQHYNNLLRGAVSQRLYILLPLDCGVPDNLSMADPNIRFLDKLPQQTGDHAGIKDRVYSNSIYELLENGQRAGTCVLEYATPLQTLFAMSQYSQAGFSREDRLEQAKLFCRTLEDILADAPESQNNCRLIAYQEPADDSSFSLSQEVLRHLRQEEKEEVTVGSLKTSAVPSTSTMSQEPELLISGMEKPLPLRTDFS
# UniProt Q86UB9: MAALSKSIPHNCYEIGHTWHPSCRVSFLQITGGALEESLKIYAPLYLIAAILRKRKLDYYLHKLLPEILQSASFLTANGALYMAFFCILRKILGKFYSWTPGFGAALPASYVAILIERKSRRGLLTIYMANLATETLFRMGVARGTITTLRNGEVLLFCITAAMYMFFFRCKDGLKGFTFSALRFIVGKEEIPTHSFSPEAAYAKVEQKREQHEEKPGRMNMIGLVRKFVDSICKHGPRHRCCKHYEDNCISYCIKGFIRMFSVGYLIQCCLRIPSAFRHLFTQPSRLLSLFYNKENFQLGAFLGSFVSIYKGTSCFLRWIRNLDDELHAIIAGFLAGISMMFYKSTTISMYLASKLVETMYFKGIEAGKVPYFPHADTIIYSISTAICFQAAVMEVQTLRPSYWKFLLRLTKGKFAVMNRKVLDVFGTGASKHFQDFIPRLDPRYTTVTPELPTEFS
# UniProt Q8IY95: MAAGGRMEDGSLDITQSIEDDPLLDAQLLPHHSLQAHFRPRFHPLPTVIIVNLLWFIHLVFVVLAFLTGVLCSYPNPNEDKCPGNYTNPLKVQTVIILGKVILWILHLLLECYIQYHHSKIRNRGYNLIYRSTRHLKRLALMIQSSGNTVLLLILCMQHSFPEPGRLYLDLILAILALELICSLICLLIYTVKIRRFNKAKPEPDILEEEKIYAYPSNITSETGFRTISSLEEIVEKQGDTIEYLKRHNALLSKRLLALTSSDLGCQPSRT
# UniProt Q8N511: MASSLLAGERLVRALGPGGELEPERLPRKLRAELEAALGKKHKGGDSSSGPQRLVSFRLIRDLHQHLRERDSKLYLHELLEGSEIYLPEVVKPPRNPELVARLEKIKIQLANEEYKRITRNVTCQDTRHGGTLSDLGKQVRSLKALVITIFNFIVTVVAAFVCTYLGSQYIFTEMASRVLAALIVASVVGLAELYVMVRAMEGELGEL
# UniProt Q9BVC6: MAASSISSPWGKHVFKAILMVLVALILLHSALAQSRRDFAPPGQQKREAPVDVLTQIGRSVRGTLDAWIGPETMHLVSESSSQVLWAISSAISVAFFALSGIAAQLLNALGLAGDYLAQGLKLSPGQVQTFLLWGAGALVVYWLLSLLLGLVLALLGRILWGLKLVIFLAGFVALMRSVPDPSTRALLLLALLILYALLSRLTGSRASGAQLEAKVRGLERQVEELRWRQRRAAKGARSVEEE
# UniProt Q8NDZ6: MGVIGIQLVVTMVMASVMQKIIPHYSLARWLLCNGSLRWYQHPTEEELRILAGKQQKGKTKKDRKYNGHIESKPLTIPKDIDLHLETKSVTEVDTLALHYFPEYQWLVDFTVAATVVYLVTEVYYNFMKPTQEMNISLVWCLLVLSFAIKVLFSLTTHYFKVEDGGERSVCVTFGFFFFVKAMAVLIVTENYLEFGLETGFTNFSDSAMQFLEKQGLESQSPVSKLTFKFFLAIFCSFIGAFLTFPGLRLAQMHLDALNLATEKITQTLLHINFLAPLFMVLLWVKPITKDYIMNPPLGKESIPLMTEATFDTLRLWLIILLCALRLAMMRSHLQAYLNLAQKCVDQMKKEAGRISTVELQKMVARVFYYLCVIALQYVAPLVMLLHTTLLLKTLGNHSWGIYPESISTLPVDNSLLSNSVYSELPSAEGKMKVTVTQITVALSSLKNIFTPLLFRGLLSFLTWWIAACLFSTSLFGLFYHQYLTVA
# UniProt P21580: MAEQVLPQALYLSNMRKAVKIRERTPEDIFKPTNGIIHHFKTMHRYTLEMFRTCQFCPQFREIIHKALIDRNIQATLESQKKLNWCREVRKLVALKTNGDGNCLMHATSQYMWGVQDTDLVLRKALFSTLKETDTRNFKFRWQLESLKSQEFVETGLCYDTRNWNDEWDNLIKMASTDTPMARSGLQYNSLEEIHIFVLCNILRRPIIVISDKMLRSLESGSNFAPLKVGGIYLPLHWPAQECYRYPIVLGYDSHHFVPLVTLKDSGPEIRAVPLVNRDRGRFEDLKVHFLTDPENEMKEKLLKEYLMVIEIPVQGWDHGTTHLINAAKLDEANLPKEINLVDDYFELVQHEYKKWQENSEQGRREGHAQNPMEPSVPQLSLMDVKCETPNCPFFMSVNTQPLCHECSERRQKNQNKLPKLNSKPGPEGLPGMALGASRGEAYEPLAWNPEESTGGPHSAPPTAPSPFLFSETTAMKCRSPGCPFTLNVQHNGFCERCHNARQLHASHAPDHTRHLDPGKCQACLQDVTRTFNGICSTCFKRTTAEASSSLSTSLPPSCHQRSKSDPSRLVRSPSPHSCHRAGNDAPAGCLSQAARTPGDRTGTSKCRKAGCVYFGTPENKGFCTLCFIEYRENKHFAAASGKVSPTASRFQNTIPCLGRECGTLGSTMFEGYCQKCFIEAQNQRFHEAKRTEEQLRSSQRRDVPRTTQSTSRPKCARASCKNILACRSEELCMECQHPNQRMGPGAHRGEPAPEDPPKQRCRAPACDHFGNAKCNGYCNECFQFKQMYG
# UniProt Q9NQ34: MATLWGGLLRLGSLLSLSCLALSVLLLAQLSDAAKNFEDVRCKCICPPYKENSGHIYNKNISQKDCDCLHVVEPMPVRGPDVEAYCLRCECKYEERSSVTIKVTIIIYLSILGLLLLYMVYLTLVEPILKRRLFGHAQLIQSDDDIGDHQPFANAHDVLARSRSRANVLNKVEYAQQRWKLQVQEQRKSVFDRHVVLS
# UniProt P63313: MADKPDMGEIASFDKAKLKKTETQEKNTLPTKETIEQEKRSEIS
# UniProt Q9NV96: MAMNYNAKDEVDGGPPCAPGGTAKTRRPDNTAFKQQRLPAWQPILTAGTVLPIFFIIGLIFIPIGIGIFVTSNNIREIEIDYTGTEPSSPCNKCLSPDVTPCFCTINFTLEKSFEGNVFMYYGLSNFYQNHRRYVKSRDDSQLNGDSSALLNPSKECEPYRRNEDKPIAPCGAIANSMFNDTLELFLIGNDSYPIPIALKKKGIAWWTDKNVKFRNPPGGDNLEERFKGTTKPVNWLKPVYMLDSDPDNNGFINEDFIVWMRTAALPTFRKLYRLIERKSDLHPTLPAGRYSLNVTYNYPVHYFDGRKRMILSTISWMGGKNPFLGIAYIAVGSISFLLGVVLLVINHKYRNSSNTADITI
# UniProt Q6ZT21: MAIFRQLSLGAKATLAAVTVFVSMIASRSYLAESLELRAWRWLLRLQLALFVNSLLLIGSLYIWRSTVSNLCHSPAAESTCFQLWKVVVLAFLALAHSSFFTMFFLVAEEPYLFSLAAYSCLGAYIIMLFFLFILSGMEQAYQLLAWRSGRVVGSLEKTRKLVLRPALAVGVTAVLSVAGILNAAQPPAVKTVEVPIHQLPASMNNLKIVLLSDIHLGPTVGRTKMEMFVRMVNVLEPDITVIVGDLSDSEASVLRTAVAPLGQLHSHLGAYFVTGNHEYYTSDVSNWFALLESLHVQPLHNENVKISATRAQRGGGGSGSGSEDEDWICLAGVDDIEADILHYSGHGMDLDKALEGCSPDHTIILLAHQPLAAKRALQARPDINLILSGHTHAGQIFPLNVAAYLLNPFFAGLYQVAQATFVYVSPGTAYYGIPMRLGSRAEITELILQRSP
# UniProt Q5T3F8: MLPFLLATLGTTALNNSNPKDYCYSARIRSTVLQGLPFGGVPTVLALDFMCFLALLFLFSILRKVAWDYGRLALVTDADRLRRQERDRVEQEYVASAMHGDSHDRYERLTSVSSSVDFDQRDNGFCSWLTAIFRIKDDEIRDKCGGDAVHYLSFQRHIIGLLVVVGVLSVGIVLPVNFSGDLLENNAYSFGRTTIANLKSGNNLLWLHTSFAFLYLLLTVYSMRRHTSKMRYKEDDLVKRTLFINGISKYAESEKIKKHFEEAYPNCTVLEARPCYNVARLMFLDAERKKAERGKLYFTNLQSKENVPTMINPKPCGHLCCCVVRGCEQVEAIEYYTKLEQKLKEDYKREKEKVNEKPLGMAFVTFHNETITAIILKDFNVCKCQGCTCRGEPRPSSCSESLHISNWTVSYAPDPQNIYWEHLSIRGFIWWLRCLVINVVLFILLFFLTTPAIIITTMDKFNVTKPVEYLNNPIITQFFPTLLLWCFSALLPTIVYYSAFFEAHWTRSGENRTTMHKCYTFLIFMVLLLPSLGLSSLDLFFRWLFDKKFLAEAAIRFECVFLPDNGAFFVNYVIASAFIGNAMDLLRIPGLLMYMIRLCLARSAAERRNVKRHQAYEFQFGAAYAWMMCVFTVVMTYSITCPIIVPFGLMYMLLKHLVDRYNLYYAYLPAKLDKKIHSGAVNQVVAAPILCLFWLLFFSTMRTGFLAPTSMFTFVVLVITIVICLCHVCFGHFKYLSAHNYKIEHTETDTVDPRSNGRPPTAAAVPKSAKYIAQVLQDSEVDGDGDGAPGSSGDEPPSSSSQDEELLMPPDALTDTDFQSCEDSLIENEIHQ
# UniProt Q9UM00: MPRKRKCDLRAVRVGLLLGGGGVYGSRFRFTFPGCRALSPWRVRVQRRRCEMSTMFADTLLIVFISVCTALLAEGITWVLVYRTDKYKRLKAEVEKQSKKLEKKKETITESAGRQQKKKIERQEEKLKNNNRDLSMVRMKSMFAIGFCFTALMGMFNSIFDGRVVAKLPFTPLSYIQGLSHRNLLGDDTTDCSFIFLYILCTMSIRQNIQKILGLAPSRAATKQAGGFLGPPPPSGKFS
# UniProt Q96MH6: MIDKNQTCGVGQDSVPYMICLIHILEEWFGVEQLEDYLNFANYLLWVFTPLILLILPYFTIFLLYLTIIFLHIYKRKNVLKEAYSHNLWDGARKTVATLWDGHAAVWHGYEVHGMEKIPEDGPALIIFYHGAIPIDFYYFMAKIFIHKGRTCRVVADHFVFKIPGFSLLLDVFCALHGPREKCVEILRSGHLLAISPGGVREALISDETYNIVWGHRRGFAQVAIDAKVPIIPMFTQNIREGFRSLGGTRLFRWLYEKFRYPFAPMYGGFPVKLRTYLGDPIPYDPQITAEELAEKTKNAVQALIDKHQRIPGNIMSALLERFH
# UniProt Q969X1: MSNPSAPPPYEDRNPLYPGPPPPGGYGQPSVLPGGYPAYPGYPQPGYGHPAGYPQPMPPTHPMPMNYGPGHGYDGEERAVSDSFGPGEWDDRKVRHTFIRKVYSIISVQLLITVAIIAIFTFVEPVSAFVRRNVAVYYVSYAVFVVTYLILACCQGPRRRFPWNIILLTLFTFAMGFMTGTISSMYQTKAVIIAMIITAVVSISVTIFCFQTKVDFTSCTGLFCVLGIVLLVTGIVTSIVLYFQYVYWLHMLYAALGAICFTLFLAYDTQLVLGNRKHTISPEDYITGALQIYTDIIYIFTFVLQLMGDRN
# The other results are listed elsewhere or left out.
# How the values were obtained:
# Assay in all cases: log2 fold change, soluble protein after heating vs DMSO (PISA); higher = thermal stabilisation; K562 cells, 10 uM, 30 min; active = over 0.2 and 3.5 SD of the protein, either way, in both replicates (recomputed)
# erlotinib = compound: C#Cc1cccc(Nc2ncnc3cc(OCCOC)c(OCCOC)cc23)c1 [erlotinib]
# Outline: (§1)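 K562 cells at 2×10^6 cells/mL were exposed to 10 μM compound for 30 min, then aliquots were heated for 3 min across 48°C-58°C, pooled, and extracted in PBS containing 0.5% NP-40 at 4°C. The supernatant after 21,000xg for 90 min was taken as soluble protein and measured by TMTpro 16plex LC-MS/MS with channel sums equalised. Thermal stability is reported relative to control samples, with values from duplicates. Fold changes are given on a log2 scale.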
# [1] = compound: C/C(=N\NC(=O)C1=CC(=CC=C1)S(=O)(=O)N2CCOCC2)/C3=C(C=CC(=C3)Cl)O
# Outline: as §1
# [2] = compound: C1=CC(=C(C=C1Cl)C2=NC3=NC=CN=C3C(=N2)NC4=CC=NC=C4)F
# Outline: as §1
# [3] = compound: C1=CC(=CC=C1C2=NC3=C(N2)C=C(C=C3)C(=O)N)OC4=CC=C(C=C4)Cl
# Outline: as §1
# [4] = compound: C1=CC2=C(C=CC(=C2)/C=C\3/C(=O)NC(=NCC4=CC=CS4)S3)N=C1
# Outline: as §1
# [5] = compound: C1=CC2=NC=CN=C2C=C1/C=C/3\C(=O)NC(=O)S3
# Outline: as §1
# [6] = compound: C1=CC=C(C=C1)C2=NC(=C(N2)C3=CC=NC=C3)C4=CC(=C(C=C4)Cl)O
# Outline: as §1
# [7] = compound: C1=CC=C2C(=C1)C3=NNC4=CC=CC(=C43)C2=O
# Outline: as §1
# [8] = compound: C1CCN(C1)C(=O)NC2=CC=CC(=C2)NC3=NC=C(C(=N3)NCCC4=CN=CN4)Br
# Outline: as §1
# [9] = compound: C1CN(CCC1(CC2=CC=C(C=C2)Cl)N)C3=NC=NC4=C3C=CN4
# Outline: as §1
Target,log2 fold change (erlotinib),log2 fold change [1],log2 fold change [2],log2 fold change [3],log2 fold change [4],log2 fold change [5],log2 fold change [6],log2 fold change [7],log2 fold change [8],log2 fold change [9]
TM9SF1 (UniProt O15321),inactive: -0.03,inactive: 0.011,inactive: -0.015,inactive: 0.01,inactive: 0.033,inactive: -0.257,inactive: -0.026,inactive: 0.029,inactive: -0.024,inactive: 0.091
TMEM208 (UniProt Q9BTX3),inactive: -0.021,inactive: 0.032,inactive: 0.101,inactive: 0.046,inactive: 0.13,inactive: 0.011,inactive: -0.054,inactive: -0.098,inactive: -0.002,inactive: 0.033
TMEM115 (UniProt Q12893),inactive: 0.035,inactive: 0.044,inactive: 0.059,inactive: 0.025,inactive: 0.026,inactive: 0.019,inactive: -0.027,inactive: -0.051,inactive: 0.006,inactive: 0.089
TMEM134 (UniProt Q9H6X4),inactive: 0.119,inactive: 0.019,inactive: 0.189,inactive: -0.036,inactive: -0.122,inactive: -0.203,inactive: -0.226,inactive: -0.108,,
TMEM173 (UniProt Q86WV6),inactive: 0.028,inactive: 0.018,inactive: -0.012,inactive: -0.078,inactive: 0.068,inactive: 0.019,inactive: -0.044,inactive: -0.032,inactive: 0.02,inactive: -0.05
TMEM135 (UniProt Q86UB9),inactive: 0.105,inactive: 0.042,inactive: 0.082,inactive: -0.014,inactive: -0.012,inactive: 0.048,inactive: -0.031,inactive: -0.081,inactive: 0.027,inactive: 0.082
TMEM245 (UniProt Q9H330),inactive: 0,inactive: -0.005,inactive: 0.043,inactive: 0.041,inactive: -0.037,inactive: 0.072,inactive: -0.081,inactive: -0.007,inactive: 0.016,inactive: 0.108
TMEM192 (UniProt Q8IY95),inactive: 0.044,inactive: -0.017,inactive: 0.011,inactive: -0.008,inactive: -0.011,inactive: 0.067,inactive: 0.011,inactive: -0.017,inactive: 0.039,inactive: 0.038
TMEM230 isoform 2 (UniProt Q96A57),inactive: 0.089,inactive: 0.038,inactive: 0.045,inactive: -0.019,inactive: -0.037,inactive: 0.141,inactive: 0.035,inactive: 0.009,inactive: 0.019,inactive: 0.045
TMEM199 (UniProt Q8N511),inactive: 0.106,inactive: -0.068,inactive: 0.014,inactive: 0.055,inactive: 0.101,inactive: 0.076,inactive: -0.003,inactive: -0.086,inactive: -0.056,inactive: 0.03
TMPO (UniProt P42167),inactive: -0.023,inactive: -0.017,inactive: 0.016,inactive: 0.005,inactive: 0,inactive: 0.018,inactive: -0.025,inactive: -0.07,inactive: -0.034,inactive: 0.062
TMEM109 (UniProt Q9BVC6),inactive: 0.026,inactive: -0.044,inactive: 0.033,inactive: 0.011,inactive: 0.027,inactive: 0.038,inactive: -0.042,inactive: 0.011,inactive: 0,inactive: 0.006
TMEM259 (UniProt Q4ZIN3),inactive: 0.019,inactive: -0.027,inactive: -0.015,inactive: 0.038,inactive: 0.052,inactive: 0.067,inactive: -0.039,inactive: -0.102,inactive: 0.012,inactive: 0.061
TM9SF3 (UniProt Q9HD45),inactive: -0.002,inactive: 0.03,inactive: 0.051,inactive: -0.011,inactive: -0.005,inactive: -0.041,inactive: 0.084,inactive: -0.011,inactive: 0.009,inactive: 0.031
TMEM161B (UniProt Q8NDZ6),inactive: 0.037,inactive: -0.074,inactive: 0.013,inactive: -0.021,inactive: -0.054,inactive: 0.018,inactive: 0.159,inactive: -0.026,inactive: -0.053,inactive: -0.03
TNFAIP3 (UniProt P21580),inactive: 0.02,inactive: 0.077,inactive: 0.087,inactive: 0.041,inactive: -0.042,inactive: -0.101,inactive: -0.113,inactive: 0.004,,
TMEM168 (UniProt Q9H0V1),inactive: 0.014,inactive: 0.003,inactive: 0.048,inactive: 0.007,inactive: 0.044,inactive: 0.003,inactive: 0.062,inactive: -0.041,inactive: 0.058,inactive: 0.001
TMEM9B (UniProt Q9NQ34),inactive: 0.062,inactive: -0.044,inactive: 0.009,inactive: -0.006,inactive: 0.055,inactive: -0.013,inactive: -0.016,inactive: -0.016,inactive: -0.006,inactive: 0.042
TMSB10 (UniProt P63313),inactive: -0.128,inactive: -0.1,inactive: 0.255,inactive: 0.049,inactive: 0.093,inactive: 0.126,inactive: 0.06,inactive: -0.052,inactive: -0.019,inactive: -0.111
TMEM30A (UniProt Q9NV96),inactive: -0.007,inactive: 0.055,inactive: 0.016,inactive: -0.001,inactive: 0.067,inactive: 0.056,inactive: 0.002,inactive: -0.021,inactive: 0.006,inactive: 0.026
TNFAIP8 isoform 4 (UniProt O95379),inactive: 0.019,inactive: 0.071,inactive: 0.087,inactive: -0.028,inactive: 0.039,inactive: 0.017,inactive: -0.015,inactive: -0.07,inactive: 0.003,inactive: 0.023
TMEM33 (UniProt P57088),inactive: -0.026,inactive: 0.048,inactive: 0.02,inactive: 0.01,inactive: 0.011,inactive: 0.025,inactive: 0.067,inactive: -0.013,inactive: -0.003,inactive: 0.038
TMEM87B (UniProt Q96K49),inactive: 0.035,inactive: 0.059,inactive: -0.069,inactive: 0.013,inactive: 0.003,inactive: 0.055,inactive: 0.009,inactive: -0.143,inactive: -0.06,inactive: 0.047
TMPPE (UniProt Q6ZT21),inactive: 0.042,inactive: 0.057,inactive: -0.021,inactive: -0.026,inactive: 0.037,inactive: 0.019,inactive: 0.006,inactive: -0.028,inactive: 0.058,inactive: -0.039
TMEM63B (UniProt Q5T3F8),inactive: -0.037,inactive: 0.063,inactive: -0.024,inactive: -0.009,inactive: -0.066,inactive: 0.012,inactive: -0.076,inactive: -0.033,inactive: 0.011,inactive: 0.065
TMCO1 (UniProt Q9UM00),inactive: 0.003,inactive: 0.03,inactive: -0.032,inactive: -0.031,inactive: 0.064,inactive: 0.009,inactive: 0.067,inactive: -0.06,inactive: 0.023,inactive: 0.021
TNFRSF10A (UniProt O00220),inactive: -0.01,inactive: -0.05,inactive: -0.023,inactive: -0.014,inactive: 0.049,inactive: -0.012,inactive: -0.026,inactive: 0.018,inactive: -0.039,inactive: -0.049
TMEM248 (UniProt Q9NWD8),inactive: -0.113,inactive: 0.058,inactive: -0.067,inactive: 0.093,inactive: -0.05,inactive: 0.022,inactive: 0.033,inactive: -0.096,inactive: 0.085,inactive: 0.015
TMEM68 (UniProt Q96MH6),inactive: 0.025,inactive: 0.035,inactive: 0.06,inactive: -0.02,inactive: 0.002,inactive: 0.041,inactive: -0.004,inactive: -0.015,inactive: -0.012,inactive: 0.071
TMBIM1 (UniProt Q969X1),inactive: 0.092,inactive: -0.139,inactive: 0.122,inactive: -0.017,inactive: 0.198,inactive: -0.025,active: 0.517,inactive: -0.069,inactive: 0.172,inactive: 0.049

# Some of the entries so far, with bars between the fields.
Target | log2 fold change (erlotinib) | log2 fold change [1] | log2 fold change [2] | log2 fold change [3] | log2 fold change [4] | log2 fold change [5] | log2 fold change [6] | log2 fold change [7] | log2 fold change [8] | log2 fold change [9]
TM9SF1 (UniProt O15321) | inactive: -0.03 | inactive: 0.011 | inactive: -0.015 | inactive: 0.01 | inactive: 0.033 | inactive: -0.257 | inactive: -0.026 | inactive: 0.029 | inactive: -0.024 | inactive: 0.091
TMEM134 (UniProt Q9H6X4) | inactive: 0.119 | inactive: 0.019 | inactive: 0.189 | inactive: -0.036 | inactive: -0.122 | inactive: -0.203 | inactive: -0.226 | inactive: -0.108 |  | 
TMEM173 (UniProt Q86WV6) | inactive: 0.028 | inactive: 0.018 | inactive: -0.012 | inactive: -0.078 | inactive: 0.068 | inactive: 0.019 | inactive: -0.044 | inactive: -0.032 | inactive: 0.02 | inactive: -0.05
TMEM199 (UniProt Q8N511) | inactive: 0.106 | inactive: -0.068 | inactive: 0.014 | inactive: 0.055 | inactive: 0.101 | inactive: 0.076 | inactive: -0.003 | inactive: -0.086 | inactive: -0.056 | inactive: 0.03
TMEM33 (UniProt P57088) | inactive: -0.026 | inactive: 0.048 | inactive: 0.02 | inactive: 0.01 | inactive: 0.011 | inactive: 0.025 | inactive: 0.067 | inactive: -0.013 | inactive: -0.003 | inactive: 0.038
